Laboratory results from paper PMC6207757.
Results are given in words; binding and its absence hold for the method and conditions named. Binding seen in cells or lysates may run through a third protein. Some binding calls cover weakened binding; strength is not graded here.

Molecular target: T1, M-Phase Phosphoprotein 9 (MPP9), endogenous (human (endogenous in hTERT RPE-1)) (UniProt Q99550)
T1 sequence: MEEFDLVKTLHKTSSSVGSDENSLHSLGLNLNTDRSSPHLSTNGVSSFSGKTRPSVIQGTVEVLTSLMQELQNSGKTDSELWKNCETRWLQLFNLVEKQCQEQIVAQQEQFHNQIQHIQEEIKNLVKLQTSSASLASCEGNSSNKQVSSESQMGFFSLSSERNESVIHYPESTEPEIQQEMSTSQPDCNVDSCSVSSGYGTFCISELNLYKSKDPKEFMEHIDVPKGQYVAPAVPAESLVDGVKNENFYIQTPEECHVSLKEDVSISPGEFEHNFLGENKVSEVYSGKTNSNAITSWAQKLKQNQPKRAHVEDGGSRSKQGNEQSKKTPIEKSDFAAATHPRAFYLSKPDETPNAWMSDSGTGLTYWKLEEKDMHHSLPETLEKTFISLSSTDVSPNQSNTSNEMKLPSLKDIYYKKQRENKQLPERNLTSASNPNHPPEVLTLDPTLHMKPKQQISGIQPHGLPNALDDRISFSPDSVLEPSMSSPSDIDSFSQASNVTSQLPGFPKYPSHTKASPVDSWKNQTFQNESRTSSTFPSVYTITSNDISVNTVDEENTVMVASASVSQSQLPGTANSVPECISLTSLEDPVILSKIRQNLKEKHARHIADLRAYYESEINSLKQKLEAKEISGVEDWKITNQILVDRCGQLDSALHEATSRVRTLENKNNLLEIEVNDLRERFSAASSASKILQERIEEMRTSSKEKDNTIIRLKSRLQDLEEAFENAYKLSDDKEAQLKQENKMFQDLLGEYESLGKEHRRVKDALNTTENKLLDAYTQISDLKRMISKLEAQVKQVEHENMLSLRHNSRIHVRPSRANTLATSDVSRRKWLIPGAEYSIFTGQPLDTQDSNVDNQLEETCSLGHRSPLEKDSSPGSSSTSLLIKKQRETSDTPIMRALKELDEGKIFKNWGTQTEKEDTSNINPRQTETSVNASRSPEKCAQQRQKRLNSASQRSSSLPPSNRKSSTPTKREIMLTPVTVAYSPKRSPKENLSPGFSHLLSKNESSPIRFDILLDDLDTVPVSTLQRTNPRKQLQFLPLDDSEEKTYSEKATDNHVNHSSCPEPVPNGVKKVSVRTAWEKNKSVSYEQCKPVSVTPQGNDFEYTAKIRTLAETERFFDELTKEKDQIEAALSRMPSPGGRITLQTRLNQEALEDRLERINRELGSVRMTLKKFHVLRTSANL
Assay: co-IP; lysates of hTERT RPE-1 cells (ELB buffer: 50 mM HEPES, 250 mM NaCl, 5 mM EDTA, 0.1% NP-40, pH 7.5), anti-MPP9 antibody, Protein G Sepharose, immunoblotting

binding: binds
B1: Kinesin Family Member 24 (KIF24) (protein, UniProt Q5T7B8 1-1368)
chain: MASWLYECLCEAELAQYYSHFTALGLQKIDELAKITMKDYSKLGVHDMNDRKRLFQLIKIIKIMQEEDKAVSIPERHLQTSSLRIKSQELRSGPRRQLNFDSPADNKDRNASNDGFEMCSLSDFSANEQKSTYLKVLEHMLPDDSQYHTKTGILNATAGDSYVQTEISTSLFSPNYLSAILGDCDIPIIQRISHVSGYNYGIPHSCIRQNTSEKQNPWTEMEKIRVCVRKRPLGMREVRRGEINIITVEDKETLLVHEKKEAVDLTQYILQHVFYFDEVFGEACTNQDVYMKTTHPLIQHIFNGGNATCFAYGQTGAGKTYTMIGTHENPGLYALAAKDIFRQLEVSQPRKHLFVWISFYEIYCGQLYDLLNRRKRLFAREDSKHMVQIVGLQELQVDSVELLLEVILKGSKERSTGATGVNADSSRSHAVIQIQIKDSAKRTFGRISFIDLAGSERAADARDSDRQTKMEGAEINQSLLALKECIRALDQEHTHTPFRQSKLTQVLKDSFIGNAKTCMIANISPSHVATEHTLNTLRYADRVKELKKGIKCCTSVTSRNRTSGNSSPKRIQSSPGALSEDKCSPKKVKLGFQQSLTVAAPGSTRGKVHPLTSHPPNIPFTSAPKVSGKRGGSRGSPSQEWVIHASPVKGTVRSGHVAKKKPEESAPLCSEKNRMGNKTVLGWESRASGPGEGLVRGKLSTKCKKVQTVQPVQKQLVSRVELSFGNAHHRAEYSQDSQRGTPARPASEAWTNIPPHQKEREEHLRFYHQQFQQPPLLQQKLKYQPLKRSLRQYRPPEGQLTNETPPLFHSYSENHDGAQVEELDDSDFSEDSFSHISSQRATKQRNTLENSEDSFFLHQTWGQGPEKQVAERQQSLFSSPRTGDKKDLTKSWVDSRDPINHRRAALDHSCSPSKGPVDWSRENSTSSGPSPRDSLAEKPYCSQVDFIYRQERGGGSSFDLRKDASQSEVSGENEGNLPSPEEDGFTISLSHVAVPGSPDQRDTVTTPLREVSADGPIQVTSTVKNGHAVPGEDPRGQLGTHAEYASGLMSPLTMSLLENPDNEGSPPSEQLVQDGATHSLVAESTGGPVVSHTVPSGDQEAALPVSSATRHLWLSSSPPDNKPGGDLPALSPSPIRQHPADKLPSREADLGEACQSRETVLFSHEHMGSEQYDADAEETGLDGSWGFPGKPFTTIHMGVPHSGPTLTPRTGSSDVADQLWAQERKHPTRLGWQEFGLSTDPIKLPCNSENVTWLKPRPISRCLARPSSPLVPSCSPKTAGTLRQPTLEQAQQVVIRAHQEQLDEMAELGFKEETLMSQLASNDFEDFVTQLDEIMVLKSKCIQSLRSQLQLYLTCHGPTAAPEGTVPS
